Assay results taken from patent US20200231681A1.
No constants are given. Whether binding was seen depends on the method and setting. Some entries that bind do so weakly or less than the wild type.

Key:
[1] = target: cynomolgus monkey c-Met ECD (SiNo. Biological, 90304-CO8H) (cynomolgus monkey); test: ELISA, coated antigen 2 µg/ml
[2] = target: cynomolgus monkey c-Met ECD (SiNo. Biological, 90304-CO8H) (cynomolgus monkey); test: ELISA, antigen coated at 2 µg/ml, antibody 6.4 pM to 100 nM, anti-human IgG F(ab')2-HRP, TMB, O.D. at 450 nm [panel Cynomolgus monkey cMet]
[3] = target: cynomolgus monkey c-Met ECD (SiNo. Biological, 90304-CO8H) (cynomolgus monkey); test: SPR (BIAcore)

- binding [1]: binds
- binding [2]: binds
- binding [3]: binds
B1: hu8C4 (IgG1 humanized antibody having a hinge region of SEQ ID NO: 38 in hu8C4-1) (antibody, V domains shown)
VH: EVQLVESGGGLVQPGGSLRLSCAASGYTFSDYYINWVRQAPGKGLEWIGEIFPGSGNTHFSARFKGRATLSADKSKNTAYLQMNSLRAEDTAVYYCAGGDYGFLYWGQGTLVTVSS
VL: DIQMTQSPSSLSASVGDRVTITCGASENIYGALNWYQQKPGKAPKLLIYGATNLADGVPSRFSGSGSGRDFTFTISSLQPEDIATYYCQNVLSSPYTFGQGTKVEIK
